Patent US6428965 (Johns Hopkins, dated 2002)
No constants are given. Whether binding was seen depends on the method and setting. For part of these data: Binding seen in cells or lysates may run through a third protein. Some results given as binding are weak or reduced against the parent protein; the word gives no strength. Sequences can lack the tags named with a protein.

T1: myc-tagged soluble neuropilin extracellular domain (myc-neuropilin^ex) (rat) (UniProt Q9QWJ9)
T1 sequence: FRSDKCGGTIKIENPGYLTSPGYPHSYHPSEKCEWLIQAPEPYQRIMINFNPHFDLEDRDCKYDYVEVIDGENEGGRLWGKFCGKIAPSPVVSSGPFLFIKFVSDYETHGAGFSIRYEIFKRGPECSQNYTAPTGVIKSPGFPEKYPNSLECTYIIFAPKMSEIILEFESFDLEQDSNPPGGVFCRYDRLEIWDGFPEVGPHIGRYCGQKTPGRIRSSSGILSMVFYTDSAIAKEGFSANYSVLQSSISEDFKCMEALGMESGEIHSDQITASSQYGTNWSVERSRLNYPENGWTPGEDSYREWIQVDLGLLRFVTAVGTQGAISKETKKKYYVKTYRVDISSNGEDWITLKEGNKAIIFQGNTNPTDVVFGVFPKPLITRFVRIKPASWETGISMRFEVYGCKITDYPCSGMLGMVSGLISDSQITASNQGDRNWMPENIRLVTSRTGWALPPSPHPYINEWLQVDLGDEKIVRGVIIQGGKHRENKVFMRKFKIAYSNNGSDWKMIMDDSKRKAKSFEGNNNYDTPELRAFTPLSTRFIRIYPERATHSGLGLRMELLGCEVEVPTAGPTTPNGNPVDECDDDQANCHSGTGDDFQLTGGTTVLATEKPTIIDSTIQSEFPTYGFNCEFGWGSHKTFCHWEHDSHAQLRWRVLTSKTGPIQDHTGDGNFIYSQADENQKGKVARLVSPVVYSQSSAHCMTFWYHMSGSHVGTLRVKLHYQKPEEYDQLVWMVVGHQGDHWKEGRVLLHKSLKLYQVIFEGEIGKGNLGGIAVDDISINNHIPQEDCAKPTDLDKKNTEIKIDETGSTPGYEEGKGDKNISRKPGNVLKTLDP


What was measured:
[1] = target: rat neuropilin (neuropilin-1), full length (rat) (UniProt Q9QWJ9); assay: binding to transfected COS cells
[2] = target: T1, myc-tagged soluble neuropilin extracellular domain (myc-neuropilin^ex) (rat); assay: co-immunoprecipitation with anti-myc antibody, AP activity
[3] = target: T1, myc-tagged soluble neuropilin extracellular domain (myc-neuropilin^ex) (rat); assay: co-immunoprecipitation with anti-myc antibody, AP activity (FIG. 1F)

Binder | binding [1] | binding [2] | binding [3]
myc epitope-tagged Sema III (Sema-myc) (ligand, human, UniProt Q14563 21-771, looked up, not shown: small tags and cut ends) NYQNGKNNVPRLKLSYKEMLESNNVITFNGLANSSSYHTFLLDEERSRLYVGAKDHIFSFDLVNIKDFQKIVWPVSYTRRDECKWAGKDILKECANFIKVLKAYNQTHLYACGTGAFHPICTYIEIGHHPEDNIFKLENSHFENGRGKSPYDPKLLTASLLIDGELYSGTAADFMGRDFAIFRTLGHHHPIRTEQHDSRWLNDPKFISAHLISESDNPEDDKVYFFFRENAIDGEHSGKATHARIGQICKNDFGGHRSLVNKWTTFLKARLICSVPGPNGIDTHFDELQDVFLMNFKDPKNPVVYGVFTTSSNIFKGSAVCMYSMSDVRRVFLGPYAHRDGPNYQWVPYQGRVPYPRPGTCPSKTFGGFDSTKDLPDDVITFARSHPAMYNPVFPMNNRPIVIKTDVNYQFTQIVVDRVDAEDGQYDVMFIGTDVGTVLKVVSIPKETWYDLEEVLLEEMTVFREPTAISAMELSTKQQQLYIGSTAGVAQLPLHRCDIYGKACAECCLARDPYCAWDGSACSRYFPTAKRRTRRQDIRNGDPLTHCSDLHHDNHHGHSPEERIIYGVENSSTFLECSPKSQRALVYWQFQRRNEERKEEIRVDDHIIRTDQGLLLRSLQQKDSGNYLCHAVEHGFIQTLLKVTLEVIDTEHLEELLHKDDDGDGSKTKEMSNSMTPSQKVWYRDFMQLINHPNLNTMDEFCEQVWKRDRKQRRQRPGHTPGNSNKWKHLQENKKGRNRRTHEFERAPRSV | binds |  | 
H-Sema III-alkaline phosphatase fusion protein (Sema-AP) (ligand, human, UniProt Q14563 21-771, looked up, Made in 293 EBNA cells from pCEP4 and used as supernatant; also called Sema III-AP; Sema III-secreted placental alkaline phosphatase fusion protein; not shown: secreted placental alkaline phosphatase of vector pAPtag-1 (Flanagan and Leder, 1990), C-terminal to Sema III; limits an) NYQNGKNNVPRLKLSYKEMLESNNVITFNGLANSSSYHTFLLDEERSRLYVGAKDHIFSFDLVNIKDFQKIVWPVSYTRRDECKWAGKDILKECANFIKVLKAYNQTHLYACGTGAFHPICTYIEIGHHPEDNIFKLENSHFENGRGKSPYDPKLLTASLLIDGELYSGTAADFMGRDFAIFRTLGHHHPIRTEQHDSRWLNDPKFISAHLISESDNPEDDKVYFFFRENAIDGEHSGKATHARIGQICKNDFGGHRSLVNKWTTFLKARLICSVPGPNGIDTHFDELQDVFLMNFKDPKNPVVYGVFTTSSNIFKGSAVCMYSMSDVRRVFLGPYAHRDGPNYQWVPYQGRVPYPRPGTCPSKTFGGFDSTKDLPDDVITFARSHPAMYNPVFPMNNRPIVIKTDVNYQFTQIVVDRVDAEDGQYDVMFIGTDVGTVLKVVSIPKETWYDLEEVLLEEMTVFREPTAISAMELSTKQQQLYIGSTAGVAQLPLHRCDIYGKACAECCLARDPYCAWDGSACSRYFPTAKRRTRRQDIRNGDPLTHCSDLHHDNHHGHSPEERIIYGVENSSTFLECSPKSQRALVYWQFQRRNEERKEEIRVDDHIIRTDQGLLLRSLQQKDSGNYLCHAVEHGFIQTLLKVTLEVIDTEHLEELLHKDDDGDGSKTKEMSNSMTPSQKVWYRDFMQLINHPNLNTMDEFCEQVWKRDRKQRRQRPGHTPGNSNKWKHLQENKKGRNRRTHEFERAPRSV |  | binds | binds
